The supplement of paper PMC7666118
The other results are listed elsewhere or left out.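 Rule for the calls: active = dose-dependent thermal stabilisation significant by F-test of dose-response against flat model at 10% FDR; inactive = not significant.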

The chains behind the UniProt entries cited, without tags or fusion partners. Where a name states a change or a piece, a line headed by the entry shows the natural chain unless it says otherwise.
UniProt Q9H6R7: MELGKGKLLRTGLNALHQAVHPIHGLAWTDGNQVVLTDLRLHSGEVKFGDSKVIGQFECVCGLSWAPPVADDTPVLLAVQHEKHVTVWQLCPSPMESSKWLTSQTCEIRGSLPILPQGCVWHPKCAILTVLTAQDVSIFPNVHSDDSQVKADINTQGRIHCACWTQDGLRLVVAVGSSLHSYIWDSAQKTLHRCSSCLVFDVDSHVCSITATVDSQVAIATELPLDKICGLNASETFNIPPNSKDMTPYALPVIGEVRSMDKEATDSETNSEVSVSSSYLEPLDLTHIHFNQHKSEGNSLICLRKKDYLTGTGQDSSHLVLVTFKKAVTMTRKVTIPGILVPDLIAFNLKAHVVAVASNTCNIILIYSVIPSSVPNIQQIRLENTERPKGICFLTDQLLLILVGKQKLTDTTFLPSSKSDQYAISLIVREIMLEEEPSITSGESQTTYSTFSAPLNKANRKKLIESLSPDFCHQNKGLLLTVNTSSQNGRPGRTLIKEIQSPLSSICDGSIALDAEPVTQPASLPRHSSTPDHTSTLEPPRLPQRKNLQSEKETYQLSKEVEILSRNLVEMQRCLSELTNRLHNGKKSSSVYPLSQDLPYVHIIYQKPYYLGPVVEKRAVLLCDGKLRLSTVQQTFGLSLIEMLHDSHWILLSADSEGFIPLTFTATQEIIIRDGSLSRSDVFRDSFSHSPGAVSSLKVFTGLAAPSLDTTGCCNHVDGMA
UniProt Q9H7D7: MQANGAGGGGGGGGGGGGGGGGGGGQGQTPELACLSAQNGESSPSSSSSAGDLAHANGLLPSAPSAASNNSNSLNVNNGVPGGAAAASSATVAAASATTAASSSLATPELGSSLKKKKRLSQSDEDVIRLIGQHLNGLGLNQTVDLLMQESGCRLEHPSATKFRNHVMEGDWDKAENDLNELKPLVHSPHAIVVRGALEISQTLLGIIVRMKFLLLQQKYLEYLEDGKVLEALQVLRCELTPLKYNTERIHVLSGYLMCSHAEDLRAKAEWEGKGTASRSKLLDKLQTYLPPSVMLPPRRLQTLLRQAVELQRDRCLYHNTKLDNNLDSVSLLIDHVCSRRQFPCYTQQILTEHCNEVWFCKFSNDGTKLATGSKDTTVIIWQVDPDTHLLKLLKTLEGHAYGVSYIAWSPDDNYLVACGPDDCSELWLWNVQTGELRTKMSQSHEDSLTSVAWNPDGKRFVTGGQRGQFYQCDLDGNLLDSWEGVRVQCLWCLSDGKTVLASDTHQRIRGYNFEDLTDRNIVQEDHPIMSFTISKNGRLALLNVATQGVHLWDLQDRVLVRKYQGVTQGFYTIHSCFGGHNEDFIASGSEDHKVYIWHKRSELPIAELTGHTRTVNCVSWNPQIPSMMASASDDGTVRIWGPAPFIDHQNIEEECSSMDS
UniProt Q8NEZ2: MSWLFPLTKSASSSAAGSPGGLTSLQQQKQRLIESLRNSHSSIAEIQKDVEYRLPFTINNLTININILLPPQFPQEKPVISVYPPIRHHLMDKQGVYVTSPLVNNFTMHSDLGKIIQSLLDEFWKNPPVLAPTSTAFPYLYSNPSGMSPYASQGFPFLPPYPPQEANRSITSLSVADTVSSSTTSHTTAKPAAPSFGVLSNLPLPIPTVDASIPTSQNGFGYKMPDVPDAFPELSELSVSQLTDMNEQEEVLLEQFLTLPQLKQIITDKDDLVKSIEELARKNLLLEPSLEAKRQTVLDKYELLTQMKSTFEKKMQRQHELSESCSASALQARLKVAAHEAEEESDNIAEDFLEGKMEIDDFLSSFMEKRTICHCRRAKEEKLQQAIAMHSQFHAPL
UniProt P16989, whole entry: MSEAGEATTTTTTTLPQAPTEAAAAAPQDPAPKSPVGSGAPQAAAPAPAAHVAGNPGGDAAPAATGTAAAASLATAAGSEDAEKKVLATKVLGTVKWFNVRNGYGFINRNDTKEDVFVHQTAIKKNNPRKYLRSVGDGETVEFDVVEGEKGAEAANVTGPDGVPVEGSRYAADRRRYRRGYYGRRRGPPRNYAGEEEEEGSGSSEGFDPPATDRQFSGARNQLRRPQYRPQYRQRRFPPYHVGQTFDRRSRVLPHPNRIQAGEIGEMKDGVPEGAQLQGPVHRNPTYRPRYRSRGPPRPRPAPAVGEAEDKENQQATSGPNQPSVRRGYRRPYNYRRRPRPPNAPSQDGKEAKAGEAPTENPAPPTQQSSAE
UniProt O75191: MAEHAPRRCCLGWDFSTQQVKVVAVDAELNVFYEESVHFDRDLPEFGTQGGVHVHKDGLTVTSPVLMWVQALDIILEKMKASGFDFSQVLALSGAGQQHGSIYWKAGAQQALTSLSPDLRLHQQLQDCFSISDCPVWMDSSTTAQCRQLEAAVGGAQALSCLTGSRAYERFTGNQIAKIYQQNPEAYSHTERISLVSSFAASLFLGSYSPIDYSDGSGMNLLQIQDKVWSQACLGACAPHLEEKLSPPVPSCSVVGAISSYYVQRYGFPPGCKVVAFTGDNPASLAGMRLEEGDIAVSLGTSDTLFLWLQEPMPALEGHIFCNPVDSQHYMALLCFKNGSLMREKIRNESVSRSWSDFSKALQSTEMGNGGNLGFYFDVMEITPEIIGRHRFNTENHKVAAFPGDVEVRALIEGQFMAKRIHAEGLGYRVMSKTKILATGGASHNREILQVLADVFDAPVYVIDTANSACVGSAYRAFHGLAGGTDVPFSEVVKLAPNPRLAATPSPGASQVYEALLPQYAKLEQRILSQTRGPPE
UniProt Q2M389: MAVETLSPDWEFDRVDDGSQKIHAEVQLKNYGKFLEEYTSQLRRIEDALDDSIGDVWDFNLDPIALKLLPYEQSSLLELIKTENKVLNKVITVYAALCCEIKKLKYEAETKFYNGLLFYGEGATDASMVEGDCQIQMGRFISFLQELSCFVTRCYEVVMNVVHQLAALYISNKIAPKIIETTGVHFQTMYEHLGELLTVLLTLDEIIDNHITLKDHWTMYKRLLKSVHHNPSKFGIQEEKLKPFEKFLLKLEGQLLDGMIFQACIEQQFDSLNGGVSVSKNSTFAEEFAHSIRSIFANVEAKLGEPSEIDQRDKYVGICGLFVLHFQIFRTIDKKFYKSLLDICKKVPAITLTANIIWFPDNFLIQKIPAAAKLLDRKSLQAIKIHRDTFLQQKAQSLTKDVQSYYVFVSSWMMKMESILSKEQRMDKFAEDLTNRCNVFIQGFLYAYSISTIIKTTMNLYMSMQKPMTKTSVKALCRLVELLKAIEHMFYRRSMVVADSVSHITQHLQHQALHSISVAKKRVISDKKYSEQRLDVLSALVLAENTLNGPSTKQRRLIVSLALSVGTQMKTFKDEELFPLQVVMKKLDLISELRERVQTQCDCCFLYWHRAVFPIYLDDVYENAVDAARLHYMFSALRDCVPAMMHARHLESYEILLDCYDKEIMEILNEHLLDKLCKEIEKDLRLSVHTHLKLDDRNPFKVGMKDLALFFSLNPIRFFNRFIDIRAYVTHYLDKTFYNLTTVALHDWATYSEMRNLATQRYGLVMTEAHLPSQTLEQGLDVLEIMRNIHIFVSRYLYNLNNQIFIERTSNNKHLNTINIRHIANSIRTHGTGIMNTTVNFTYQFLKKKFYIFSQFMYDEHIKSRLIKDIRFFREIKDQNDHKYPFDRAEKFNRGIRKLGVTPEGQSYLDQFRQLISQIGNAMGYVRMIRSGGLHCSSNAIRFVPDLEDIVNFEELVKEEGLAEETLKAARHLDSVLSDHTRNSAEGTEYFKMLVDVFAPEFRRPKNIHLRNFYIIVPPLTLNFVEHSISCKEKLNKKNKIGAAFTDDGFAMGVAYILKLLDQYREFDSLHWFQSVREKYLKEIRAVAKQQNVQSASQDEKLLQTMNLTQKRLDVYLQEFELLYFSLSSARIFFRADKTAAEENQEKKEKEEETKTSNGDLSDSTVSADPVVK
UniProt Q96JH7: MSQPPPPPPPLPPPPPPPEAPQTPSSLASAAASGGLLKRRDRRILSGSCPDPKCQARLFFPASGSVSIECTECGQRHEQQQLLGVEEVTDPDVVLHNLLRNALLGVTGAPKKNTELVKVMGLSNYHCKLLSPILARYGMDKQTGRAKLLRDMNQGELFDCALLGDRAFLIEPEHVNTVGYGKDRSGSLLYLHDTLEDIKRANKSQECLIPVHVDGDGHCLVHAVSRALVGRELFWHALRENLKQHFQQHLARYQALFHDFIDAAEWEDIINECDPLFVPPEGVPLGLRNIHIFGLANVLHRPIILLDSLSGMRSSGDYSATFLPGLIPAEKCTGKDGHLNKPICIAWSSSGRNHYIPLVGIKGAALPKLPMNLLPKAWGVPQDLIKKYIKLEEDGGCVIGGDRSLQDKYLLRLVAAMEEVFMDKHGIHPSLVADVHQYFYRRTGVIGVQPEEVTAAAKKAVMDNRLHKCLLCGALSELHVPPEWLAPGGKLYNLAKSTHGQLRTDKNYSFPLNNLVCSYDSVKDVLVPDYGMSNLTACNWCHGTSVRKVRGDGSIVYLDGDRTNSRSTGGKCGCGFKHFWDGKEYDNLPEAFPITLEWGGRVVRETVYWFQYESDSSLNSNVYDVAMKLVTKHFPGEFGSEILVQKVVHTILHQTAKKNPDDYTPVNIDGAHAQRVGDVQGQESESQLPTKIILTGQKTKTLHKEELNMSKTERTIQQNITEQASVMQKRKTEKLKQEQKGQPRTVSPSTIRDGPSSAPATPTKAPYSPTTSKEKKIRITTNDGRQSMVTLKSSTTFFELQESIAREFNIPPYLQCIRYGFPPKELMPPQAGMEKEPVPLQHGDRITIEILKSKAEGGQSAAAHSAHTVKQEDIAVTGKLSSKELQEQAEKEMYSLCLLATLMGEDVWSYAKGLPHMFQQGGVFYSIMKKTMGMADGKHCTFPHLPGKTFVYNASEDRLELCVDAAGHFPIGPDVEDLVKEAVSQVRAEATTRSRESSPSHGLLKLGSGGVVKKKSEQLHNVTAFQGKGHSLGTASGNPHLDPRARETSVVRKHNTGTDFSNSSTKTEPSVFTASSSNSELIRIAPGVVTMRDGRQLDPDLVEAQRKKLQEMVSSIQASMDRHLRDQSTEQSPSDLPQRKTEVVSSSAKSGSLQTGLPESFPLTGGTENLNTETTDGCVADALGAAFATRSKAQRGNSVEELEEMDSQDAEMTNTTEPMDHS
UniProt P43403: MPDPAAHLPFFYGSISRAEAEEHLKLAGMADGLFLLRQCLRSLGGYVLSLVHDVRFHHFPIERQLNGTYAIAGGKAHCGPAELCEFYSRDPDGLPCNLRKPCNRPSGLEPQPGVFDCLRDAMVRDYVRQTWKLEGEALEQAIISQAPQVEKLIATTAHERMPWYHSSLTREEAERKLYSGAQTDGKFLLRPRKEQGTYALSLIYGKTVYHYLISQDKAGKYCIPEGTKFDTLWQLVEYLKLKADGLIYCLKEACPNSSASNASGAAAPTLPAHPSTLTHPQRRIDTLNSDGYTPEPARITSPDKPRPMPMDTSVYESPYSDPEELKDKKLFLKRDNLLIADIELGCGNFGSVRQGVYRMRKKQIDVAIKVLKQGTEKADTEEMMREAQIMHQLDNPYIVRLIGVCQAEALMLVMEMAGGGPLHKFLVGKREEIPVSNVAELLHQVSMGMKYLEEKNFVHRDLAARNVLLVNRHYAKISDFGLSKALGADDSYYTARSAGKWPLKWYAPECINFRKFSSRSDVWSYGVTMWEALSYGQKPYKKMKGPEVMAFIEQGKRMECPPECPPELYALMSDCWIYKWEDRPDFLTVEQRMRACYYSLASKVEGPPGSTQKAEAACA

Compound: Nc1nc2c(ncn2[C@@H]2O[C@H](COP(=O)(O)OP(=O)(O)OP(=O)(O)O)[C@@H](O)[C@H]2O)c(=O)[nH]1
Assay: dose-dependent thermal stabilisation call (2D-TPP, DLPTP, 10% FDR) (binary (1 = stabilised)); higher = stabilised by the compound
Details: system: Jurkat gel-filtered lysate; concentration range 1-500 µM

dose-dependent thermal stabilisation call, inactive:
VPS35 (UniProt Q96QK1) 0, WDCP (UniProt Q9H6R7) 0, WDR26 (UniProt Q9H7D7) 0, VPS37A (UniProt Q8NEZ2) 0, YBX3 (UniProt P16989) 0, XYLB (UniProt O75191) 0, WASHC4 (UniProt Q2M389) 0, VCPIP1 (UniProt Q96JH7) 0

dose-dependent thermal stabilisation call, active:
ZAP70 (UniProt P43403) 1
